Here are results for one substance from article PMC12140386, “Diallyl Trisulfide From Garlic Regulates RAB18 Phase Separation to Inhibit Lipophagy and Induce Cuproptosis in Hepatic Stellate Cells for Antifibrotic Effects” (Advanced Science, 2025).

Amino acid sequences for entries named in this document (tags omitted).
UniProt Q9NP72: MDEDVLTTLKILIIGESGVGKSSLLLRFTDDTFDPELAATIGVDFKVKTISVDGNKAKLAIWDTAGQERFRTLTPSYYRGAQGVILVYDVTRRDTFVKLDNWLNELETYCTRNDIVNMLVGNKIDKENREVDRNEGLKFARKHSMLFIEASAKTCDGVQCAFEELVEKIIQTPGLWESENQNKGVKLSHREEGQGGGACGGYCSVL

This test deals with T1, Carnitine palmitoyltransferase 1A (CPT1A) (human (endogenous in LX2)) (UniProt P50416).
T1 sequence: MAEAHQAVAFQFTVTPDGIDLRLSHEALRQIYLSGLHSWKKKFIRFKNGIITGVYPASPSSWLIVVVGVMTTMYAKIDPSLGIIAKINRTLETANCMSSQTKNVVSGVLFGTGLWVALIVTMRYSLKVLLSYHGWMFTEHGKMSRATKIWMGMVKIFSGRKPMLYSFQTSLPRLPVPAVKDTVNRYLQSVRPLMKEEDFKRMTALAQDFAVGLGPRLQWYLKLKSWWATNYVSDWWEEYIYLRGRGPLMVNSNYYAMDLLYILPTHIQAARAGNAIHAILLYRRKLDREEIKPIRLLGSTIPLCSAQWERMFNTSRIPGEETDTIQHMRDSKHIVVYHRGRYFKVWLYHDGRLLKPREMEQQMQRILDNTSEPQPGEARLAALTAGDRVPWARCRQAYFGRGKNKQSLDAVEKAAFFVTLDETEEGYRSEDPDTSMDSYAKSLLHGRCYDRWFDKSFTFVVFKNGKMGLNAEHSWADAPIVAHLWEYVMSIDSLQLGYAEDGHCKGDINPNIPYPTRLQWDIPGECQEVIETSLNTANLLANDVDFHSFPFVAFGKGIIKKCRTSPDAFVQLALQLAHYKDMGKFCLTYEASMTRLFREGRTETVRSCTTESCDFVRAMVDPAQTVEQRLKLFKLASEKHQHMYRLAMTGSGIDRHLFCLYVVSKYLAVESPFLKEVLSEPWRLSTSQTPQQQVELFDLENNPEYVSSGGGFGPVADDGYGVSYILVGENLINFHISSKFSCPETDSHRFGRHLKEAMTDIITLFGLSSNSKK
Nature of the test: affinity purification with mass spectrometry; Co-IP-MS of CPT1A from LX2 cells treated with DATs (10 µM); control IgG or target antibody, Protein G beads, gel bands digested with trypsin, LC-MS/MS.

These are yes or no findings as the source states them, for the method shown. Binding seen in cells or lysates may run through a third protein. Here binding means that the protein was enriched with, or labelled near, the bait; the list need not be complete.

As to “Ras‐related protein Rab‐18 (RAB18) (from UniProt Q9NP72 1-206)”, the binding entry is “binds”.
